Data: paper PMC3737541, “Structure-function analysis of the EF-hand protein centrin-2 for its intracellular localization and nucleotide excision repair” (Nucleic Acids Research, 2013)
Results are given in words; binding and its absence hold for the method and conditions named.

The chains behind the UniProt entries cited, without tags or fusion partners.
UniProt P23025: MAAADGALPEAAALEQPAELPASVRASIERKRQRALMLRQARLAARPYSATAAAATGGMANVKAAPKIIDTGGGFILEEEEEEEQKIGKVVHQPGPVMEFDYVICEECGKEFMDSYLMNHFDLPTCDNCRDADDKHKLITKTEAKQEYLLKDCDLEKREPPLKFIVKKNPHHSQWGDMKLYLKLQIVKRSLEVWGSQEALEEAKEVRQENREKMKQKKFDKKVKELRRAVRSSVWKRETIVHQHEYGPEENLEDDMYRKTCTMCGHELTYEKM

Molecular target: T1, FLAG-XPA (human, UniProt P23025 1-273)
T1 construct: XPA protein, human; also called purified recombinant XPA
Experiment: pull-down; FLAG-XPA (0.5 µg) immobilised on anti-DDDDK-tag magnetic beads; centrin-2 in buffer B, on ice 1 h; elution with FLAG peptide; immunoblot; no XPC/RAD23B; both purified

binding: no binding
B1: centrin-2 C domain, detached from the GST tag (domain or fragment, human, UniProt P41208 94-172, looked up)
chain: TQKMSEKDTKEEILKAFKLFDDDETGKISFKNLKRVAKELGENLTDEELQEMIDEADRDGDGEVSEQEFLRIMKKTSLY
notes: centrin-2, human, carboxyl-terminal (C) domain, residues 94-172; also called the C domain alone; source: E. coli BL21 (DE3), purified (GSTrap FF, HiTrap Phenyl FF), GST removed with PreScission protease; not shown: GST, N-terminal, cleaved
